Some of the results follow.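 How the source made its calls: active = dose-dependent thermal stabilisation significant by F-test of dose-response against flat model at 10% FDR; inactive = not significant.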
compound: Nc1nc2c(ncn2[C@@H]2O[C@H](COP(=O)(O)OP(=O)(O)OP(=O)(O)O)[C@@H](O)[C@H]2O)c(=O)[nH]1; assay: dose-dependent thermal stabilisation call (2D-TPP, DLPTP, 10% FDR) (binary (1 = stabilised)); higher = stabilised by the compound; conditions: system: Jurkat gel-filtered lysate; concentration range 1-500 µM
Experimental: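 2D thermal proteome profiling in gel-filtered Jurkat E6.1 lysate (2 mg/ml) treated with NaGTP (0, 1, 10, 100, 500 uM) for 10 min at room temperature, then heated 3 min at one of 12 temperatures (42-63.9 C). Soluble protein was quantified by TMT10 MS. The value is the DLPTP call of the paper: dose-dependent thermal stabilisation over all temperatures at 10% FDR (F-test of a dose-response against a flat model); one experiment, one call per tested protein.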

The chains behind the UniProt entries cited, without tags or fusion partners. Where a name states a change or a piece, a line headed by the entry shows the natural chain unless it says otherwise.
UniProt Q9HAD4: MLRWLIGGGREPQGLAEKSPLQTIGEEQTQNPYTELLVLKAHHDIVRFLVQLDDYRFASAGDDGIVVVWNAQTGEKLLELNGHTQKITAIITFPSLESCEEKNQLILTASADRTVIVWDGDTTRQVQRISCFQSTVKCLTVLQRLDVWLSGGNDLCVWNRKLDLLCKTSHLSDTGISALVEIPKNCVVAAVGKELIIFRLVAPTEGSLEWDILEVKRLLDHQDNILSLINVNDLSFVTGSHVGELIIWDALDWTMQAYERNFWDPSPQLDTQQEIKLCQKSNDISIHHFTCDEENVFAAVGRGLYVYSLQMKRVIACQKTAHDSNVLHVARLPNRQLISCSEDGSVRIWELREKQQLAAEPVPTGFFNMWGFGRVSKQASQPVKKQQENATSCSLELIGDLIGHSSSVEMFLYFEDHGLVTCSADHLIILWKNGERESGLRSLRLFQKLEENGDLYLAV
UniProt Q9BZM5, whole entry: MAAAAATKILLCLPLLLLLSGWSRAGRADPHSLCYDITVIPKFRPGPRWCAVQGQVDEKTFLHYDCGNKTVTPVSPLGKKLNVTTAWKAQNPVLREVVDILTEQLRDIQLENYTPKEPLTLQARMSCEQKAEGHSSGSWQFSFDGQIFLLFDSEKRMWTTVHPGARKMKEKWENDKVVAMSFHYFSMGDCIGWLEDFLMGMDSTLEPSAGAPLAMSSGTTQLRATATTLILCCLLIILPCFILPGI
UniProt Q14139: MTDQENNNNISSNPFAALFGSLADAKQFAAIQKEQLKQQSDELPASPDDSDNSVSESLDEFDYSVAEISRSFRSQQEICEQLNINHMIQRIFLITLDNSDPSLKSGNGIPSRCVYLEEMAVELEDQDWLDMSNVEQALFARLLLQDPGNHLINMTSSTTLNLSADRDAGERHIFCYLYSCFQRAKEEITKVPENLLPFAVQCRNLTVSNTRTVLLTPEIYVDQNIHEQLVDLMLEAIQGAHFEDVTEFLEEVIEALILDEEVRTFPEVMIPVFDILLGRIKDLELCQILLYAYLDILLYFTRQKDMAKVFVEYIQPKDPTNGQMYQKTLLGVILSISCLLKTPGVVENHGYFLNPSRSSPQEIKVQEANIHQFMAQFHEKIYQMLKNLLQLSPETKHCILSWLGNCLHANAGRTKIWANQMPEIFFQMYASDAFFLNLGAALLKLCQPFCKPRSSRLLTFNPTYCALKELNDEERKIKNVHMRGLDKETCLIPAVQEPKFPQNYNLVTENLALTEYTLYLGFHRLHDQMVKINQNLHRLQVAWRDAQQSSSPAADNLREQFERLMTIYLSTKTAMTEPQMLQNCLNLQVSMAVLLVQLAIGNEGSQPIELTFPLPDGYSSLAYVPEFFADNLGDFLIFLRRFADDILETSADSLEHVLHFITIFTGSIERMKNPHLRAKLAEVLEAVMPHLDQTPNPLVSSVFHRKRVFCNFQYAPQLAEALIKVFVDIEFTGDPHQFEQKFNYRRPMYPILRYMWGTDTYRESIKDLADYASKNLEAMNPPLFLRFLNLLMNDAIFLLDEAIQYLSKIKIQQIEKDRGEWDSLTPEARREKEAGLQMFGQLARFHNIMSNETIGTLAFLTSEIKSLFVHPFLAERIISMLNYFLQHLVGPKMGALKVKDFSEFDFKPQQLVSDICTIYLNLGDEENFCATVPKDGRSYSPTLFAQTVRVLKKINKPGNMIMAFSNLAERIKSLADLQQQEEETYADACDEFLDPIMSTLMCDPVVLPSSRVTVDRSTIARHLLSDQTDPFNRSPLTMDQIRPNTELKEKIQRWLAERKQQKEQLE
UniProt Q8IZH2: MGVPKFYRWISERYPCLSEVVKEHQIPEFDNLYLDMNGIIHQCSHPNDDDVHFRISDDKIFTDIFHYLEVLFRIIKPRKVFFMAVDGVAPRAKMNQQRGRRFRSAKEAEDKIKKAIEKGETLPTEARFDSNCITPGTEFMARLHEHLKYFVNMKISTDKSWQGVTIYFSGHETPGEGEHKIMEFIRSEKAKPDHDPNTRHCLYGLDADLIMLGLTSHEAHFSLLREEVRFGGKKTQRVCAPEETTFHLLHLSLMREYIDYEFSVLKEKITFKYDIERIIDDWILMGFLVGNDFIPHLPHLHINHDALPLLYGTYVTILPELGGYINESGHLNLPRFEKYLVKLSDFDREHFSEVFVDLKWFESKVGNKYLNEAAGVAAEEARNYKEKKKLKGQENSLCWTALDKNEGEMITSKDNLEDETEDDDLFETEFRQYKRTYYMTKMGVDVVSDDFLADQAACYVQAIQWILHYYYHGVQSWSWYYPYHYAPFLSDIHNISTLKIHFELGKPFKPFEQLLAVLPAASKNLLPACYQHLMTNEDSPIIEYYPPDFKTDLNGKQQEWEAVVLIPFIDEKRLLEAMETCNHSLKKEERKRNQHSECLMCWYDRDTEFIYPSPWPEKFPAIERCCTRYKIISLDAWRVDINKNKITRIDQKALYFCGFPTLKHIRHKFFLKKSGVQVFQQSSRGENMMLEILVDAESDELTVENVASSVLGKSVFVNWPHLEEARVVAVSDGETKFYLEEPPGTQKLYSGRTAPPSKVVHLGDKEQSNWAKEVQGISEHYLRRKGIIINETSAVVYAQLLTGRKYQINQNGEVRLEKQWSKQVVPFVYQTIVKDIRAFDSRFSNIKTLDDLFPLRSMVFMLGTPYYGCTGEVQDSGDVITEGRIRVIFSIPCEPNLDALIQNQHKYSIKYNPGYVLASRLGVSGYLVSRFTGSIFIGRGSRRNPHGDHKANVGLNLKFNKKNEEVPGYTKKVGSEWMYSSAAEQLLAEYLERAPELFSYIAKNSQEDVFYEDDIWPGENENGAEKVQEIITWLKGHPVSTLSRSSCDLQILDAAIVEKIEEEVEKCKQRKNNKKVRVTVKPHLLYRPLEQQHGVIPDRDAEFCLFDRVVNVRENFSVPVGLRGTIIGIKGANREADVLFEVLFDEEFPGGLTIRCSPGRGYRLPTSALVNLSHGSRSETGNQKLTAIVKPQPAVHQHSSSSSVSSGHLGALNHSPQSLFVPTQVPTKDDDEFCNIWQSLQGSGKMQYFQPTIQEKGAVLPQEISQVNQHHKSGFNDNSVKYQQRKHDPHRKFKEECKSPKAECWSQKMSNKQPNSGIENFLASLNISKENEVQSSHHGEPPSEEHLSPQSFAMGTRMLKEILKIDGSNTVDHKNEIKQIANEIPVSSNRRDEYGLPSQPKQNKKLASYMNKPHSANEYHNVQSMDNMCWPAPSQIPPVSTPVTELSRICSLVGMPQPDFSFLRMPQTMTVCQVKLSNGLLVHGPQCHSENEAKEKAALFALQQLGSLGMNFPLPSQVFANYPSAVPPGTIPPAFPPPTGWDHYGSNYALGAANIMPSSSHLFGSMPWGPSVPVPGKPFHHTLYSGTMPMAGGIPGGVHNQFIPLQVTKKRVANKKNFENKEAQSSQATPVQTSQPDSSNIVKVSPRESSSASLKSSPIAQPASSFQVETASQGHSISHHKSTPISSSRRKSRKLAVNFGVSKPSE
UniProt Q8WV99: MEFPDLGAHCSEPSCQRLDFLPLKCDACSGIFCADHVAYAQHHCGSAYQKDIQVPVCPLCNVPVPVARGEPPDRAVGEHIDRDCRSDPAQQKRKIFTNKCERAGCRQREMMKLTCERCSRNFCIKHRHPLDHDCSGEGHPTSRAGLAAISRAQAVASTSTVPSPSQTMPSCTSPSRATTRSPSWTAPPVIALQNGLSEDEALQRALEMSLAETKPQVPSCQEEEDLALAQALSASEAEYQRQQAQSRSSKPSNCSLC
UniProt P51784: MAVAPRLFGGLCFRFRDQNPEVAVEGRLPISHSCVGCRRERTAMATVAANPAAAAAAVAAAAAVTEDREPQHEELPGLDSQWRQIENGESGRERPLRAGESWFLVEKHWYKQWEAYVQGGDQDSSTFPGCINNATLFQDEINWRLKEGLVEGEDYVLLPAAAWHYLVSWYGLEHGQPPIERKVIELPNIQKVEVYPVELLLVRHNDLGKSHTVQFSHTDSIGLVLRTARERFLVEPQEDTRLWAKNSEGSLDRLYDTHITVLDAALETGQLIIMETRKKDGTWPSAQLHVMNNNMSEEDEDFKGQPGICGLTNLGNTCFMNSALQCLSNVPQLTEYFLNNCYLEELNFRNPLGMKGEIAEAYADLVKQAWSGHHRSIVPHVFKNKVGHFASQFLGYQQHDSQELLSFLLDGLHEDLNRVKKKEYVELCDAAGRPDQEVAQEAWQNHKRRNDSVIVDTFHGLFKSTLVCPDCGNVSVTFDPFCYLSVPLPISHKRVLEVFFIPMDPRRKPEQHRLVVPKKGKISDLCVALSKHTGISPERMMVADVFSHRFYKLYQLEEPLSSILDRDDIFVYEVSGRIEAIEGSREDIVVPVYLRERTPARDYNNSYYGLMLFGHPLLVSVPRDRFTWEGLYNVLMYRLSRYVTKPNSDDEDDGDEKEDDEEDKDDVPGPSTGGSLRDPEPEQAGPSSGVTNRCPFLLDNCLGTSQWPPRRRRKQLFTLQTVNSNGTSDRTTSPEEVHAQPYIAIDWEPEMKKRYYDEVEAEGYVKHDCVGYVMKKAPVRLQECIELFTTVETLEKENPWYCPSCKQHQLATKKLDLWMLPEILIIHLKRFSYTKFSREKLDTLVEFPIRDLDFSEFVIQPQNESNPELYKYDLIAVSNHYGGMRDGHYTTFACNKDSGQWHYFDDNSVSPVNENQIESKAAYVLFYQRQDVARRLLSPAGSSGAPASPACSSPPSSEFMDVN
UniProt Q9NQW7: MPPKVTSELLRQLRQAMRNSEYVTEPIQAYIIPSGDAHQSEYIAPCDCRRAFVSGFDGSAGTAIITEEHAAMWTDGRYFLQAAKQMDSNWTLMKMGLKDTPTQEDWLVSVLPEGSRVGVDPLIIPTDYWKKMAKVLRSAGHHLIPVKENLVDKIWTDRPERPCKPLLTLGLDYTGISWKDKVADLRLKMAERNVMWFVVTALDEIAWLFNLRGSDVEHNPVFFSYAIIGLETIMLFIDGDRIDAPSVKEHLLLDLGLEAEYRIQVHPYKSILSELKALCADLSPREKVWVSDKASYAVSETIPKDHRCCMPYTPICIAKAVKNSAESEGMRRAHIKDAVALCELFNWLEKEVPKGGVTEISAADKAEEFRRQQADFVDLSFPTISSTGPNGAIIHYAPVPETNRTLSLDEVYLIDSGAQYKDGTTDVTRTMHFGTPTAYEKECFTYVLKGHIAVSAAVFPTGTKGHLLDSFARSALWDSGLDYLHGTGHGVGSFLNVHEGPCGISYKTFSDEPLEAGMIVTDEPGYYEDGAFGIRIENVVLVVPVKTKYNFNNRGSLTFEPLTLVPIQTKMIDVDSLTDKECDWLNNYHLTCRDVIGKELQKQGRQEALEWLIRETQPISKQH
UniProt Q9NWZ5: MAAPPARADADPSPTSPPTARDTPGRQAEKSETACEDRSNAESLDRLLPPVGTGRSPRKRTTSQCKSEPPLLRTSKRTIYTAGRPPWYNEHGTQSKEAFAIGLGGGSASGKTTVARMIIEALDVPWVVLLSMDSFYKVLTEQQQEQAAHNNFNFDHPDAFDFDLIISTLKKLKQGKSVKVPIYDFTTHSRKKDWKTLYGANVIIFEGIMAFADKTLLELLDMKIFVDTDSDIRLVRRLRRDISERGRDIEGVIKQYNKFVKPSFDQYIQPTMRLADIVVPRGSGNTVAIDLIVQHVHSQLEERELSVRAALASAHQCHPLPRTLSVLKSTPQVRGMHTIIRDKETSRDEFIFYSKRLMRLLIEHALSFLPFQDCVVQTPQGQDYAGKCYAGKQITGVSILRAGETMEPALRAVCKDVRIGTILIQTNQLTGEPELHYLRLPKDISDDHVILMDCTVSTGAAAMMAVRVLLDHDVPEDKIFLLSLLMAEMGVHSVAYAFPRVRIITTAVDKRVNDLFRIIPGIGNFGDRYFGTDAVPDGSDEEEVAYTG
UniProt Q96IU2: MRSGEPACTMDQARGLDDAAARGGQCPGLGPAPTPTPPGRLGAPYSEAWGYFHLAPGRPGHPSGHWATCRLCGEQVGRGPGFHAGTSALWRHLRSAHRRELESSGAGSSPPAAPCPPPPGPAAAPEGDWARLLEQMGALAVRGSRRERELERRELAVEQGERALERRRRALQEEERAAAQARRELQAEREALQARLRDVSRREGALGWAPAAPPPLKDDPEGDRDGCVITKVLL

| Target | dose-dependent thermal stabilisation call |
| --- | --- |
| UBE2F (UniProt Q969M7) | inactive: 0 |
| WDR89 (UniProt Q96FK6) | inactive: 0 |
| WDR41 (UniProt Q9HAD4) | inactive: 0 |
| USP19 (UniProt O94966) | inactive: 0 |
| USO1 (UniProt O60763) | inactive: 0 |
| VPS50 (UniProt Q96JG6) | inactive: 0 |
| ULBP2 (UniProt Q9BZM5) | inactive: 0 |
| VEZF1 (UniProt Q14119) | inactive: 0 |
| UBE4A (UniProt Q14139) | inactive: 0 |
| VAV2 (UniProt P52735) | active: 1 |
| UBE2E2 (UniProt Q96LR5) | active: 1 |
| WDR61 (UniProt Q9GZS3) | inactive: 0 |
| USP13 (UniProt Q92995) | active: 1 |
| XRN1 (UniProt Q8IZH2) | active: 1 |
| VPS13B (UniProt Q7Z7G8) | inactive: 0 |
| WDR7 (UniProt Q9Y4E6) | inactive: 0 |
| VAC14 (UniProt Q08AM6) | inactive: 0 |
| YAF2 (UniProt Q8IY57) | inactive: 0 |
| ZFAND2B (UniProt Q8WV99) | inactive: 0 |
| USP11 (UniProt P51784) | active: 1 |

| Target | dose-dependent thermal stabilisation call |
| --- | --- |
| XRCC6 (UniProt P12956) | inactive: 0 |
| YWHAG (UniProt P61981) | inactive: 0 |
| UGP2 (UniProt Q16851) | inactive: 0 |
| VTI1B (UniProt Q9UEU0) | inactive: 0 |
| ZBTB18 (UniProt Q99592) | inactive: 0 |
| UBE2M (UniProt P61081) | inactive: 0 |
| ZCRB1 (UniProt Q8TBF4) | inactive: 0 |
| XPNPEP1 (UniProt Q9NQW7) | inactive: 0 |
| VPS26A (UniProt O75436) | inactive: 0 |
| WDSUB1 (UniProt Q8N9V3) | inactive: 0 |
| UCKL1 (UniProt Q9NWZ5) | active: 1 |
| ZC3H18 (UniProt Q86VM9) | inactive: 0 |
| UBE3D (UniProt Q7Z6J8) | inactive: 0 |
| YRDC (UniProt Q86U90) | inactive: 0 |
| WDR11 (UniProt Q9BZH6) | inactive: 0 |
| VPS29 (UniProt Q9UBQ0) | inactive: 0 |
| VCPIP1 (UniProt Q96JH7) | inactive: 0 |
| ZBED3 (UniProt Q96IU2) | inactive: 0 |
| USP38 (UniProt Q8NB14) | inactive: 0 |
| YARS (UniProt P54577) | active: 1 |

Some of the entries above, reformatted:
Target	dose-dependent thermal stabilisation call
ULBP2 (UniProt Q9BZM5)	inactive: 0
YAF2 (UniProt Q8IY57)	inactive: 0
VTI1B (UniProt Q9UEU0)	inactive: 0
